Values from PubChem BioAssay AID652272 (Drosophila RNAi Screening Center, 2013).
Purpose: 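Genes whose knock-down decreases or increases Hedgehog reporter output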 (primary screen). Cell system: Drosophila clone 8 (Cl8) cells. Reagent: long dsRNA against Drosophila genes. Detection: 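Plate reader light from a firefly reporter under a ptc promoter fragment that responds to Hedgehog, with Renilla light as transfection reference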. Direction: firefly Hh reporter signal: higher = more ptc reporter light; Renilla reference signal: higher = more Renilla control light. Rule for the call: 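Called a hit if the two-replicate mean z-score lies below -2 or above +3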. Meaning of the calls: active = hit: reporter lowered or raised; inactive = not a hit.
In all, the deposit lists about 21,000 reagents; shown is an unselected part of those with a known target gene and a result. Over the whole deposit, 503 (2.4%) are marked active. 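Raw plate light values, not normalised; calls rest on replicate z-scores that were not deposited; hits include reporter decreases as well as increases.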 Unmarked entries are inactive. The numbers tell different reagents against one gene apart. A plus sign joins genes that one reagent is predicted to hit. Not given: the amount of reagent, the time to read-out.

Gene | dsRNA no. | firefly Hh reporter signal, replicate 1 | firefly Hh reporter signal, replicate 2 | firefly Hh reporter signal, replicate 3 | Renilla reference signal, replicate 1 | Renilla reference signal, replicate 2
CG33489 (GeneID 2768971) | 1 | 69492 | 52701 | 52183 | 5074 | 3593
CG1463 (GeneID 32211) | 1 | 1.03e5 | 81927 | – | 2551 | 1927
Tret1-2 (GeneID 36249) | 1 | 1.04e5 | 55798 | – | 2485 | 5126
mats (GeneID 42634) | 1 | 55522 | 1.95e5 | – | 10813 | 4194
mats (GeneID 42634) | 2 | 1.31e5 | 91540 | – | 5559 | 3722
Rpn12 (GeneID 39845) | 1 | 31735 (active) | – | – | 3648 | 2151
CG16786 (GeneID 37856) | 1 | 86251 | 68416 | – | 1949 | 6748
Cdk8 (GeneID 39157) | 1 | 77222 | 35668 | – | 4055 | 1338
Idua (GeneID 34544) | 1 | 73794 | 43072 | – | 3540 | 1883
sug (GeneID 36424) | 1 | 65827 | 41537 | – | 2741 | 1717
CheA87a (GeneID 41642) | 1 | 99292 | 95680 | – | 2656 | 2322
Gr64d + Gr64e | 1 | 1.19e5 | 83462 | – | 4501 | 6008
CG9519 (GeneID 32415) | 1 | 1.37e5 | 95444 | – | 3149 | 2583
RpS17 (GeneID 39088) | 1 | 30496 (active) | 11523 | 28664 | 4600 | 3552
ND-B14.5A (GeneID 31190) | 1 | 1.26e5 | 2.98e5 | – | 4592 | 11010
Su(Tpl) (GeneID 40171) | 1 | 64873 | 72624 | – | 2438 | 2620
CG31525 (GeneID 318782) | 1 | 2.70e5 | – | – | 5337 | –
CG9410 + CG15908 | 1 | 66791 | 37860 | – | 1760 | 3657
CG9410 + CG15908 | 2 | 86578 | 62211 | – | 2124 | 6297
CG4716 (GeneID 36471) | 1 | 1.24e5 | 93111 | – | 4315 | 3251
RanBP3 (GeneID 42804) | 1 | 85668 | 65237 | – | 3690 | 2512
CG3610 (GeneID 41795) | 1 | 60048 | 1.01e5 | – | 1882 | 2961
CG43666 + CG43667 + CG43668 | 1 | 1.68e5 | 3.68e5 | – | 4528 | 14960
CG43666 + CG43667 + CG43668 | 2 | 1.11e5 | 62170 | – | 2636 | 5013
swa (GeneID 31580) | 1 | 86026 | 72097 | – | 2016 | 1616
sns (GeneID 44097) | 1 | 22219 (active) | 5149 | – | 776 | 816
sns (GeneID 44097) | 2 | 84498 | 51587 | – | 1476 | 4880
sns (GeneID 44097) | 3 | 7.35e5 | 1.20e5 | – | 5216 | 5216
sns (GeneID 44097) | 4 | 1.26e5 | 66038 | – | 3384 | 5508
sns (GeneID 44097) | 5 | 95994 | 57703 | – | 2453 | 4962
sns (GeneID 44097) | 6 | 71479 (active) | 18216 | – | 2404 | 2240
CG32591 (GeneID 318104) | 1 | 4.30e5 | 1.97e5 | – | 27225 | 4856
CG2061 (GeneID 32042) | 1 | 91328 | 80376 | – | 2314 | 2145
Nepl17 (GeneID 43408) | 1 | 83691 | 1.05e5 | – | 2812 | 3649
CHES-1-like (GeneID 31678) | 1 | 67296 | 1.63e5 | – | 1863 | 6676
Plp (GeneID 3772382) | 1 | 1.54e5 | – | – | 6944 | 4390
Plp (GeneID 3772382) | 2 | 90292 | – | – | 1997 | 2388
Plp (GeneID 3772382) | 3 | 69296 | 59942 | – | 2728 | 2756
Cpr67Fa1 (GeneID 39223) | 1 | 64770 | 64691 | 58262 | 7169 | 4960
Galphaf (GeneID 39861) | 1 | 1.20e5 | – | – | 2305 | 5733
WRNexo (GeneID 42208) | 1 | 1.30e5 | 1.26e5 | – | 4928 | 4749
alpha-Man-Ib (GeneID 43436) | 1 | 88442 | 1.15e5 | – | 1512 | 3211
ago (GeneID 38516) | 1 | 1.53e5 | 71290 | – | 6813 | 3477
CG14989 (GeneID 38485) | 1 | 97769 | 52694 | – | 4064 | 2404
CG11211 (GeneID 35545) | 1 | 99440 | 90675 | – | 1881 | 7625
CG32176 (GeneID 39944) | 1 | 1.91e5 | – | – | 3505 | 5445
CG32176 (GeneID 39944) | 2 | 1.22e5 | – | – | 4468 | 3229
Tmem214 (GeneID 34514) | 1 | 94091 | 84966 | – | 2617 | 5914
Tmem214 (GeneID 34514) | 2 | 1.34e5 | 78688 | – | 3081 | 5781
CG32985 (GeneID 326244) | 1 | 98211 | 34509 | – | 2224 | 3040
CG43125 (GeneID 12798281) | 1 | 65157 | 4.14e5 | – | 15110 | 9184
CG4297 (GeneID 33222) | 1 | 1.10e5 | 85477 | – | 2150 | 2106
Oat (GeneID 40145) | 1 | 71889 | 51565 | – | 3061 | 1963
Rpn3 (GeneID 35176) | 1 | 37013 (active) | 22791 | – | 1369 | 4284
RpL23 (GeneID 37628) | 1 | 28289 (active) | 24235 | – | 1707 | 3936
ImpL2 (GeneID 38513) | 1 | 96304 | 62824 | – | 4160 | 3106
CG31612 (GeneID 35427) | 1 | 1.32e5 | 74296 | – | 3321 | 7467
CG31612 (GeneID 35427) | 2 | 92775 | 54487 | – | 2157 | 5778
Spn53F (GeneID 36931) | 1 | 78593 | 44710 | – | 2233 | 3293
CG32633 (GeneID 326225) | 1 | 6.82e5 | 2.31e5 | – | 35655 | 5602
Sidpn (GeneID 35168) | 1 | 1.64e5 | 93467 | – | 6208 | 4352
Hsc70-4 (GeneID 41840) | 1 | 51536 | 43690 | – | 2264 | 1588
Mal-A7 (GeneID 35829) | 1 | 77826 | 42576 | – | 1651 | 3808
CG5989 (GeneID 38984) | 1 | 83737 | 69648 | – | 4124 | 3080
CG18549 (GeneID 41538) | 1 | 64456 | 1.19e5 | – | 2813 | 3508
msopa (GeneID 45962) | 1 | 49730 | 41792 | – | 1813 | 1258
CG42525 (GeneID 8674097) | 1 | 5.64e5 | 1.07e5 | 1.36e5 | 5531 | 2928
VhaAC39-2 (GeneID 42739) | 1 | 6.35e5 | 1.45e5 | – | 30919 | 4853
Spt (GeneID 35889) | 1 | 1.35e5 | 62370 | – | 3645 | 5669
CG11247 (GeneID 40414) | 1 | 1.36e5 | 4.99e5 | 1.13e5 | 5739 | 31466
mth (GeneID 38058) | 1 | 1.23e5 | 1.05e5 | – | 5941 | 4184
Gnmt (GeneID 41561) | 1 | 79591 | 1.48e5 | – | 2839 | 3851
Nipped-B (GeneID 3355136) | 1 | 68368 | 43597 | – | 2411 | 2577

Targets listed so far whose target name begins with A or a:
Gene | dsRNA no. | firefly Hh reporter signal, replicate 1 | firefly Hh reporter signal, replicate 2 | firefly Hh reporter signal, replicate 3 | Renilla reference signal, replicate 1 | Renilla reference signal, replicate 2
alpha-Man-Ib (GeneID 43436) | 1 | 88442 | 1.15e5 | – | 1512 | 3211
ago (GeneID 38516) | 1 | 1.53e5 | 71290 | – | 6813 | 3477
